In article PMC8777168 one finds binding data, which are given here for 3 substances.

The chains behind the UniProt entries cited, without tags or fusion partners.
UniProt Q9UNE7: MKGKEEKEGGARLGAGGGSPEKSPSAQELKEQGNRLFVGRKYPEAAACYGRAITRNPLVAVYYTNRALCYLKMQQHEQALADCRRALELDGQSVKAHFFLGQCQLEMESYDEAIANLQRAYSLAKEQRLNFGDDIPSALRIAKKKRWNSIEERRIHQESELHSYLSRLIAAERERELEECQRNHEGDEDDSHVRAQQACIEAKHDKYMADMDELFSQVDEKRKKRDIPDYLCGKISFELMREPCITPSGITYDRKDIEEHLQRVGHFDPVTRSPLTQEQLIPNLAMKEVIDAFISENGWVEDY
UniProt Q04206: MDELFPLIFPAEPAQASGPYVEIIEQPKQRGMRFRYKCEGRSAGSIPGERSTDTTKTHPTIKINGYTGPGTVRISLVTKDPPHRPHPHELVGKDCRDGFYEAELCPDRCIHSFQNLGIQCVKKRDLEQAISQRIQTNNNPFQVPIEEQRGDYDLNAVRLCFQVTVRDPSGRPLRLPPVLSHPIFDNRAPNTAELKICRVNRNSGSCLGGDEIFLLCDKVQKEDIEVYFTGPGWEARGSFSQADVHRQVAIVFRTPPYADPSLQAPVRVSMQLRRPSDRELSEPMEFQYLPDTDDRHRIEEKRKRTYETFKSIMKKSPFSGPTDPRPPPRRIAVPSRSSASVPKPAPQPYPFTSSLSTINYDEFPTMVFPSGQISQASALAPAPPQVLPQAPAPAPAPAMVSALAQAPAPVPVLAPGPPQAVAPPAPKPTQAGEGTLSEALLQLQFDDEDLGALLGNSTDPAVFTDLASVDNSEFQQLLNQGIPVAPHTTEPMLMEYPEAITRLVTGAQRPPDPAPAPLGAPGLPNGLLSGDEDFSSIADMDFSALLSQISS

Experiment [1] concerns the target T1, macrophage migration inhibitory factor (MIF) (human (endogenous in HOS/143B)) (UniProt P14174).
T1 sequence: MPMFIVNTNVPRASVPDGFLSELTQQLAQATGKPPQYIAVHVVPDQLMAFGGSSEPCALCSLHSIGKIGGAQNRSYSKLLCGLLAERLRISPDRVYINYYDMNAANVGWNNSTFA
Kind of experiment: co-IP; total cellular proteins of HOS/143B cells, immunoprecipitation with antibodies against MIF, western blots for p65, CD74 or STUB1; cells with or without 40 μM 4-IPP for 12 h.

Experiment [2] deals with T2, MIF in 293T cells (UniProt P14174).
T2 sequence: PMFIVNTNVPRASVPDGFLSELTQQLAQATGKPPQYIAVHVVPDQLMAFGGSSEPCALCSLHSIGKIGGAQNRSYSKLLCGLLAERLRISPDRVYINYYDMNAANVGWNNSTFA
The experiment can be described thus: co-IP; 293T cells transfected for 24 h with STUB1 truncation or mutation plasmids, lysed, coimmunoprecipitation and western blotting.

These are yes or no findings as the source states them, for the method shown. In cells and extracts the contact can be indirect. Some entries that bind do so weakly or less than the wild type.

“E3 ubiquitin-protein ligase STUB1 (from UniProt Q9UNE7 1-303) (enzyme)”: the binding entry in experiment [1] is “binds”.
As to “STUB1, expressed from a plasmid in 293T cells (from UniProt Q9UNE7 1-303) (enzyme)”, the binding entry in experiment [2] was “binds”.
For p65 (from UniProt Q04206 1-551), the binding entry in experiment [1] is recorded as “binds”.
